One molecule from doi:10.1101/495762 (bioRxiv, 2018) can be followed below.

No constants are given. Whether binding was seen depends on the method and setting. In cells and extracts the contact can be indirect. Some results given as binding are weak or reduced against the parent protein; the word gives no strength. Where a sequence is shown, tags or fusion partners need not be part of it.

The target of test [1] is T1, Smc3(E1155Q, R1222C)-HaloTag (S. cerevisiae) (UniProt P47037).
T1 sequence: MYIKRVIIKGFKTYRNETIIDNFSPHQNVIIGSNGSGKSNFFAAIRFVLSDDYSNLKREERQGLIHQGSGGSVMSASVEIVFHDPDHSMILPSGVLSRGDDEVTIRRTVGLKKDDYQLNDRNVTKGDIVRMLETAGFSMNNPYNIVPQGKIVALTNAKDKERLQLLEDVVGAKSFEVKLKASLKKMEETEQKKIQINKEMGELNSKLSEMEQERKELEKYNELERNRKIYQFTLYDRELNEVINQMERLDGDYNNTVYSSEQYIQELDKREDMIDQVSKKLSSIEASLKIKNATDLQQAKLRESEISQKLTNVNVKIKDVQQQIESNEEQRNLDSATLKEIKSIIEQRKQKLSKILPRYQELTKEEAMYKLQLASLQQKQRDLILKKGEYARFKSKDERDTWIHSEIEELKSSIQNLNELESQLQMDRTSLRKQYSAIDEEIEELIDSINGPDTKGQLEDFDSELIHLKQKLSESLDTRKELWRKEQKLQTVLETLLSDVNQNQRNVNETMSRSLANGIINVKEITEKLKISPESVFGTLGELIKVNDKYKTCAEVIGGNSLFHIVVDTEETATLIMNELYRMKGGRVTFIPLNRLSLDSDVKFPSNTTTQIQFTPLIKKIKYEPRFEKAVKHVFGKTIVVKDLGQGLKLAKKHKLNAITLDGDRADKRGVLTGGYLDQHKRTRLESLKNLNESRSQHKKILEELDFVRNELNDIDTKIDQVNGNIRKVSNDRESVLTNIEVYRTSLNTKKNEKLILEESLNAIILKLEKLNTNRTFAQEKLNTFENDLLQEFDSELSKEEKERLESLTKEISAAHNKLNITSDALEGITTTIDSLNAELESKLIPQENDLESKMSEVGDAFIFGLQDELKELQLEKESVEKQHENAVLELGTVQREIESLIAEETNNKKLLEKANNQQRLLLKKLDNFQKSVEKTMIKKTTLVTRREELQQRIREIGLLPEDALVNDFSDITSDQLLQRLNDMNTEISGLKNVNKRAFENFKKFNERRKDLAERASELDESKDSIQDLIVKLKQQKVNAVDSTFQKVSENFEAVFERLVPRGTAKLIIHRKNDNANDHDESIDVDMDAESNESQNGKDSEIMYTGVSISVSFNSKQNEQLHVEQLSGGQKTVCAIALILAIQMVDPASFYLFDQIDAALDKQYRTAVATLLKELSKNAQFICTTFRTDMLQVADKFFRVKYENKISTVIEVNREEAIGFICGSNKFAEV
Kind of test: cross-linking.

Test [2] concerns the target T2, Smc3(R1222C)-HaloTag (S. cerevisiae) (UniProt P47037).
T2 sequence: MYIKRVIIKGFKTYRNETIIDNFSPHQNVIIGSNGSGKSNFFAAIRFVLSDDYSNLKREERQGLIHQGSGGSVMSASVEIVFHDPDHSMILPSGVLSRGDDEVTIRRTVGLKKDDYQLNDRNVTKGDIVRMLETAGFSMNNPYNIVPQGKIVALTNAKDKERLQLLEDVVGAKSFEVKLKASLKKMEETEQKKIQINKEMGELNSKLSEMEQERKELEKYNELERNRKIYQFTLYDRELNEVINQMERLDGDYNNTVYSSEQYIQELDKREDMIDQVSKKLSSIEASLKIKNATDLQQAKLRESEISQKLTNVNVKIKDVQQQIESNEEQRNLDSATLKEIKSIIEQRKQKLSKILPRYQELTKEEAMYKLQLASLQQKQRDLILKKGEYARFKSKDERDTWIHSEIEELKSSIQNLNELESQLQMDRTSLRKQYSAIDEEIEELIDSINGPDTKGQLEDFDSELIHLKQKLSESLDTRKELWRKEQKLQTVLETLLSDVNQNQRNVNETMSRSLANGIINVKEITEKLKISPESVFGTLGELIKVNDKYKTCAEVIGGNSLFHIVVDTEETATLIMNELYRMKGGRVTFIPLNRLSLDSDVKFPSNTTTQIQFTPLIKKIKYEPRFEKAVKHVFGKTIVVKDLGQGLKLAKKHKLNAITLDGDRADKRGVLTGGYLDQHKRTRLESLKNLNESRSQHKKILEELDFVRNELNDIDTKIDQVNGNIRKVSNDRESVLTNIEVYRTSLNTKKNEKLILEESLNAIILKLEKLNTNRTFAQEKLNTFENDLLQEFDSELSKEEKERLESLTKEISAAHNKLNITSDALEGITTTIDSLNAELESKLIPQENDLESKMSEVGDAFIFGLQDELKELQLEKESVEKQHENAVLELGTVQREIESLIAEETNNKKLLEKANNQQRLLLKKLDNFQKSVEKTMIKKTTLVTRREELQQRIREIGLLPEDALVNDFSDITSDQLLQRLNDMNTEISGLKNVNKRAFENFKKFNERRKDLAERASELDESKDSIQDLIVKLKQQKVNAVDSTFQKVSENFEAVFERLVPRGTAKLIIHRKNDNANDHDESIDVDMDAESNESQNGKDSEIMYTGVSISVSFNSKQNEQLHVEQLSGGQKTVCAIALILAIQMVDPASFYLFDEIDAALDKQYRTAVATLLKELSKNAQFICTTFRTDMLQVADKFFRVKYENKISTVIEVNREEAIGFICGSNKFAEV
Kind of test: cross-linking.

B1: Smc1(N1192C) (protein, UniProt P32908 1-1225)
chain: MGRLVGLELSNFKSYRGVTKVGFGESNFTSIIGPNGSGKSNMMDAISFVLGVRSNHLRSNILKDLIYRGVLNDENSDDYDNEGAASSNPQSAYVKAFYQKGNKLVELMRIISRNGDTSYKIDGKTVSYKDYSIFLENENILIKAKNFLVFQGDVEQIAAQSPVELSRMFEEVSGSIQYKKEYEELKEKIEKLSKSATESIKNRRRIHGELKTYKEGINKNEEYRKQLDKKNELQKFQALWQLYHLEQQKEELTDKLSALNSEISSLKGKINNEMKSLQRSKSSFVKESAVISKQKSKLDYIFKDKEKLVSDLRLIKVPQQAAGKRISHIEKRIESLQKDLQRQKTYVERFETQLKVVTRSKEAFEEEIKQSARNYDKFKLNENDLKTYNCLHEKYLTEGGSILEEKIAVLNNDKREIQEELERFNKRADISKRRITEELSITGEKLDTQLNDLRVSLNEKNALHTERLHELKKLQSDIESANNQEYDLNFKLRETLVKIDDLSANQRETMKERKLRENIAMLKRFFPGVKGLVHDLCHPKKEKYGLAVSTILGKNFDSVIVENLTVAQECIAFLKKQRAGTASFIPLDTIETELPTLSLPDSQDYILSINAIDYEPEYEKAMQYVCGDSIICNTLNIAKDLKWKKGIRGKLVTIEGALIHKAGLMTGGISGDANNRWDKEEYQSLMSLKDKLLIQIDELSNGQRSNSIRAREVENSVSLLNSDIANLRTQVTQQKRSLDENRLEIKYHNDLIEKEIQPKITELKKKLDDLENTKDNLVKEKEALQNNIFKEFTSKIGFTIKEYENHSGELMRQQSKELQQLQKQILTVENKLQFETDRLSTTQRRYEKAQKDLENAQVEMKSLEEQEYAIEMKIGSIESKLEEHKNHLDELQKKFVTKQSELNSSEDILEDMNSNLQVLKRERDGIKEDIEKFDLERVTALKNCKISNINIPISSETTIDDLPISSTDNEAITISNSIDINYKGLPKKYKENNTDSARKELEQKIHEVEEILNELQPNARALERYDEAEGRFEVINNETEQLKAEEKKILNQFLKIKKKRKELFEKTFDYVSDHLDAIYRELTKNPNSNVELAGGNASLTIEDEDEPFNAGIKYHATPPLKRFKDMEYLSGGEKTVAALALLFAINSYQPSPFFVLDEVDAALDITNVQRIAAYIRRHRNPDLQFIVISLKCTMFEKSDALVGVYRQQQENSSKIITLDLSNYAE
For B1, the binding result in test [1] and in test [2] was “binds” each time.
